One assay relates to PC12 cells. The assay can be described thus: Neuroprotection assay against H2O2 damage. The assay is classed as cell-based. The note with it: PC12, 100 µM H2O2 (model 47.3%); donepezil, concentration not given. Here is the method: PC12 cells were distributed into 96-well plates at a density of 1 × 10^4 cells/well, and after the cells were incubated overnight, they were treated with different concentrations of compound A10 (1 − 25 µM) for 3 h. Then, 100 µM H2O2 was added as a cytotoxic stimulus, and the culture was continued for 24 h in fresh medium containing this drug. Cell survival was measured by MTT assay after 24 h. The cells were incubated with 20 µL of 5 mg/mL MTT reagent for 4 h. After 4 h, the cell culture medium was removed, and 150 µL of DMSO was added to dissolve formazan. The optical density at 492 nm (OD492) was measured on a BiotekSynergy HTX multimode reader. Results were adjusted for OD measured in blank.

In a further assay the test system is Aβ1-42. Particulars: mouse, in vivo, po, 15 mg/kg. The procedure:
In the experiment of Aβ1-42 oligomeric injury, all mice were sacrificed after the end of behavioural study, and the brains were taken to determine the total content of Aβ1-42 with a mouse ELISA kit (Wuhan Huamei Biotechnology Co., Ltd.). Each brain tissue specimen was completely homogenised with a grinder with 10 times PBS (pH = 7.4 ± 0.1) and then centrifuged at 5000×g for 5 min. The supernatant was separated for use. Brain tissue Aβ1-42 content was calculated according to the linear regression equation. All values were expressed as mean ± SEM using GraphPadPrism8.0 software.

Regarding `COc1cc2c(cc1OC)C(=O)C(CC1CCN(Cc3ccccc3)CC1)C2` (centres unmarked) [Donepezil, donepezil, reference compound], the cell survival rate with PC12 cells came out at 71.2%. The “decrease of brain Aβ1-42 peptides” value in the assay on Aβ1-42 is 14.7%.

These data come from article PMC8386747, “Structure–activity relationship, in vitro and in vivo evaluation of novel dienyl sulphonyl fluorides as selective BuChE inhibitors for the treatment of Alzheimer's disease” (Journal of Enzyme Inhibition and Medicinal Chemistry, 2021).
